{"sequences": {"note": "Sequences of proteins named here, by UniProt entry; tags and fusion partners are left off. Residues count along the entry.", "UniProt P11362, residues 22-822": "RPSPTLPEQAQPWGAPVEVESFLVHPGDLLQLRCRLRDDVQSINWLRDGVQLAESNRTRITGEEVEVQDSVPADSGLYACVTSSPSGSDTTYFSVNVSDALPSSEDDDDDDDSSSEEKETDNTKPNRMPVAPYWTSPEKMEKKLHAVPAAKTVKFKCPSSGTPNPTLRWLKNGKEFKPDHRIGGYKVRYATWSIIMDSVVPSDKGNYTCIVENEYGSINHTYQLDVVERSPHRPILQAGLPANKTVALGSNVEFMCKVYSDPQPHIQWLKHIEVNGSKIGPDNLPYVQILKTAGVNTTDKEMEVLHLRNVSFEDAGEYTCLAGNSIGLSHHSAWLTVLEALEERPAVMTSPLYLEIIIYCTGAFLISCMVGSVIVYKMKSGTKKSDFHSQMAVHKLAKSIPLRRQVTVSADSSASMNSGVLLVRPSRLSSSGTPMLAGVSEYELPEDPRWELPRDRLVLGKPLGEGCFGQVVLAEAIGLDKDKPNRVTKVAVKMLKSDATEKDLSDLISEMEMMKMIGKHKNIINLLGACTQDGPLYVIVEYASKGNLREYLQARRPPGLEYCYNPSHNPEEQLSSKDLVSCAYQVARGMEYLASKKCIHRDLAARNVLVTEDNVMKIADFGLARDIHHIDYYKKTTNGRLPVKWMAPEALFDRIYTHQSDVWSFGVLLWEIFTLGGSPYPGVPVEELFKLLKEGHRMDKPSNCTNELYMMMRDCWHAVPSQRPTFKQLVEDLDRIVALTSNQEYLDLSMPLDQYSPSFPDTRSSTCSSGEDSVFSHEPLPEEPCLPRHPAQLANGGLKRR"}, "source": "paper PMC8671394", "about": "“Paracrine FGFs target skeletal muscle to exert potent anti-hyperglycemic effects” (Nature Communications, 2021)", "target": "human FGFR1c ectopically expressed on the surface of L6 myoblasts (human) (UniProt P11362)", "experiment": "proximity ligation; L6 rat skeletal myoblasts ectopically expressing human FGFR1c, stimulated with mFGF4 or rFGF4; FGFR1c dimerization on the cell surface", "note": "These are yes or no findings as the source states them, for the method shown. Binding seen in cells or lysates may run through a third protein. Some binding calls cover weakened binding; strength is not graded here."}
{"substance": "human FGFR1c ectopically expressed on the surface of L6 myoblasts (from UniProt P11362 22-822) (receptor)", "values": [{"measurement": "binding", "value": "binds"}]}
